According to PMC3820798:
No constants are given. Whether binding was seen depends on the method and setting. In cells and extracts the contact can be indirect. Some binding calls cover weakened binding; strength is not graded here.

Sequences of proteins named here, by UniProt entry; tags and fusion partners are left off.
UniProt Q91ZW3: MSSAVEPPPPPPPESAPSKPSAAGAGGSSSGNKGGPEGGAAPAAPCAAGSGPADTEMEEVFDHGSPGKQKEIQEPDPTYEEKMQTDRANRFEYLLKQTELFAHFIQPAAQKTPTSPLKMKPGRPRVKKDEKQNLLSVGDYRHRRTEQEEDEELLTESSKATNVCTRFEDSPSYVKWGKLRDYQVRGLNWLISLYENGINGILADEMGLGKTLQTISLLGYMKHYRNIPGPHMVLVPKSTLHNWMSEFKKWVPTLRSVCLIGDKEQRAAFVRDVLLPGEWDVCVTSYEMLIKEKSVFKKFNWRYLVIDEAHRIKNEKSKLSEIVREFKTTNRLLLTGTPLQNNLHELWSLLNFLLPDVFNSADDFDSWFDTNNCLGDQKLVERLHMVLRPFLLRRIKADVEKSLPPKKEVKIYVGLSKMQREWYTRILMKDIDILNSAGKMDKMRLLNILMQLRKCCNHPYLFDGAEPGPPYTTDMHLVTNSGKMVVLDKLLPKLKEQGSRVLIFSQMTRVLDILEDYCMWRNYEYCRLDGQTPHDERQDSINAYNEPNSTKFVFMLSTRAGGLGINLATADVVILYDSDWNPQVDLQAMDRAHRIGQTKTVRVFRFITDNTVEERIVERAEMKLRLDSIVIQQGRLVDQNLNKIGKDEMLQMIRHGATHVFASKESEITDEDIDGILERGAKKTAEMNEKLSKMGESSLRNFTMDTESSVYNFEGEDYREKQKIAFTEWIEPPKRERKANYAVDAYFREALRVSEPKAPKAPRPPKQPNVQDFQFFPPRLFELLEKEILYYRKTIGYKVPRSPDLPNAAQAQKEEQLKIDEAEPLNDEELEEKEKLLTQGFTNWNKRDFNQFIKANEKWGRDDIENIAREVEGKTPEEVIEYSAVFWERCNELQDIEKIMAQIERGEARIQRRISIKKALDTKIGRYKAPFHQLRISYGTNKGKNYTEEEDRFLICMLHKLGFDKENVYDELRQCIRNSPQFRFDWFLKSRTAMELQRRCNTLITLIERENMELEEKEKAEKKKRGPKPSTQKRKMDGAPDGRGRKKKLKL
UniProt O88379: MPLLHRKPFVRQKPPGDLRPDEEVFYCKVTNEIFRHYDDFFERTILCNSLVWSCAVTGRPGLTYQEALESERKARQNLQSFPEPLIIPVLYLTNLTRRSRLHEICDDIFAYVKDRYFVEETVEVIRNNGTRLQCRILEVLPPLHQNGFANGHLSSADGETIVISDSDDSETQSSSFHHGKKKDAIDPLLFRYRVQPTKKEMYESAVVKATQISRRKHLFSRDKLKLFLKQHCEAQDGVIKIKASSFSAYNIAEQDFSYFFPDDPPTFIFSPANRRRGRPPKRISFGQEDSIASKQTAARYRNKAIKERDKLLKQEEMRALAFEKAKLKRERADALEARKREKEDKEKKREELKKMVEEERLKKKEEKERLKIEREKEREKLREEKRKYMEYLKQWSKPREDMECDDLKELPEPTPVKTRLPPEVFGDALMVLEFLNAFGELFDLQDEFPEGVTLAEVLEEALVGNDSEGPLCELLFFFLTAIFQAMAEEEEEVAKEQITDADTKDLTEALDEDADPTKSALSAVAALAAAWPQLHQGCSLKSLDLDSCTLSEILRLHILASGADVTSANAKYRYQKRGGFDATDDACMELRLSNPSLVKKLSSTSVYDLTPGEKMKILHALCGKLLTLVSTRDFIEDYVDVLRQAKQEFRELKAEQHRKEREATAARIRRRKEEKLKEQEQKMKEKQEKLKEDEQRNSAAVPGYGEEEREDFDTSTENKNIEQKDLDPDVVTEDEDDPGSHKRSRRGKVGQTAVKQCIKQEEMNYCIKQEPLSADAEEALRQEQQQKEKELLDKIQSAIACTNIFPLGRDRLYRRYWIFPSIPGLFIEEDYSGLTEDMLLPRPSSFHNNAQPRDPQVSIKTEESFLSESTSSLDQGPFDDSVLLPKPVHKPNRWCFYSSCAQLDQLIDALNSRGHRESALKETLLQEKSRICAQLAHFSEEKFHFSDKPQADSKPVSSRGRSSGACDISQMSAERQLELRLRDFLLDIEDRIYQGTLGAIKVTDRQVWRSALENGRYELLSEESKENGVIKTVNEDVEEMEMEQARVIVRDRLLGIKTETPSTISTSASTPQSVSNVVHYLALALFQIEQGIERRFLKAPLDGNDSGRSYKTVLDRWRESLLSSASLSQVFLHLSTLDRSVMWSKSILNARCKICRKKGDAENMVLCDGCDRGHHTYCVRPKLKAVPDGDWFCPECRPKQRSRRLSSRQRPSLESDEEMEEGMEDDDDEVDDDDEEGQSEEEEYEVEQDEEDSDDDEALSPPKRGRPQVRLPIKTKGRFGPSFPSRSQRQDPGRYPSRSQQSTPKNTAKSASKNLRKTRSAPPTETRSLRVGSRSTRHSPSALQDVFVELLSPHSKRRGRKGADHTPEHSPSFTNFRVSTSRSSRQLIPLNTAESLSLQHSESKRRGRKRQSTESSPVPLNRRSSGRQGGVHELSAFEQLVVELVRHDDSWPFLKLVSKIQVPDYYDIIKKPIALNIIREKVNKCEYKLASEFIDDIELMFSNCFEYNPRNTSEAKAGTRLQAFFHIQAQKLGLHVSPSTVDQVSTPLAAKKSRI

How the values were obtained:
Experiment in all cases: co-IP; wild-type adult mouse whole testis lysate; hypotonic lysis, freeze/thaw, benzonase, NaCl raised to 500 mM then reduced to 150 mM; antibody overnight, protein-G beads, washed three times with PBS; immunoblot
[1] = molecular target: SNF2H (mouse (endogenous in testis)) (UniProt Q91ZW3)
[2] = molecular target: T1, CHRAC17 (mouse (endogenous in testis)) (UniProt Q9JKP7)
T1 sequence: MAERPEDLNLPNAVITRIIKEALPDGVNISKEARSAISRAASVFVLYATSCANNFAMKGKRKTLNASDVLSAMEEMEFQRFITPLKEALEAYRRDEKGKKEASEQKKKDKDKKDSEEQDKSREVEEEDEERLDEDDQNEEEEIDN

[3] = molecular target: BAZ1A (mouse (endogenous in testis)) (UniProt O88379)

binding [1] | binding [2] | binding [3] | Substance
binds | binds |  | BAZ1A (from UniProt O88379 1-1555)
 |  | binds | SNF2H (from UniProt Q91ZW3 1-1051)
